The list does not hold the whole screen: it is rich in T/C values a quarter to a half above the control, in often repeated tests (any T/C) and in doses without a T/C. Other doses and runs of a compound stand elsewhere. T/C is the treated group as % of the vehicle group. Some doses have a count of surviving animals in place of a T/C: the source holds a T/C of zero for them, seemingly a mark for toxic or unscored doses. Counts of survivors are from the toxicity check (mostly the fifth day) where no day follows; animals may have died later. Schedules are NCI's codes, taken here to give the interval after Q, in days (D) or hours (H), and the number of doses after X. Where survival is the endpoint, the PubChem record calls one and a half times the control and up active, and a quarter to a half above the control has no call in these data; cut-offs in other NCI protocols can differ. Some T/C values carry the count of animals alive at the toxicity check (mostly the fifth day); where none is given, no animal had died by that day. Some doses were run more than once; the results are listed from low to high.
Test system: CD2F1 mice, L1210 leukemia ip, survival T/C
Assay: NCI In Vivo Anticancer Drug Screen. Data for tumor model L1210 Leukemia (intraperitoneal) in CD2F1 (CDF1) mice
Conditions: T/C endpoint: mean survival time, schedule: Q01DX001 (ip), higher T/C = longer survival
Procedure, shortened: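 Ratio T/C, where T is the treated-group value and C the vehicle-dosed control value, from mice implanted with a transplantable tumor.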

O=P1(N(CCCl)CCCl)NCCCO1 (centres undefined)
T/C (dose: 250.0 mg/kg/injection, vehicle: water, evaluated on day 35): 90 [5 of 6 alive] and 193 % of control | T/C (dose: 250.0 mg/kg/injection, vehicle: water, evaluated on day 40): 405 and 426 % of control | T/C (dose: 250.0 mg/kg/injection, vehicle: water, evaluated on day 45): 244 and 344 % of control | T/C (dose: 250.0 mg/kg/injection, vehicle: water, evaluated on day 60): 195 % of control | T/C (dose: 300.0 mg/kg/injection, vehicle: saline, evaluated on day 5): 210 and 267 % of control | T/C (dose: 300.0 mg/kg/injection, vehicle: saline, evaluated on day 6): 219 % of control | T/C (dose: 300.0 mg/kg/injection, vehicle: saline, evaluated on day 30): 118, 126, 184, 244, 245, 256, 301 % of control | T/C (dose: 300.0 mg/kg/injection, vehicle: saline, evaluated on day 45): 529 % of control | T/C (dose: 300.0 mg/kg/injection, vehicle: saline, evaluated on day 90): 100, 176, 204, 237, 320, 687, 757 % of control | survivor count (dose: 400.0 mg/kg/injection, vehicle: Klucel (hydroxypropylcellulose) (HPC)): 2 of 6 | T/C (dose: 400.0 mg/kg/injection, vehicle: saline, evaluated on day 5): 251, 270, 283, 348, 359, 363, 468, 474, 487 % of control | T/C (dose: 400.0 mg/kg/injection, vehicle: saline, evaluated on day 6): 221 % of control | T/C (dose: 400.0 mg/kg/injection, vehicle: saline, evaluated on day 30): 90 [4 of 6 alive], 185 [5 of 6 alive], 203 [4 of 6 alive], 260, 271 [5 of 6 alive], 278 % of control | T/C (dose: 400.0 mg/kg/injection, vehicle: saline, evaluated on day 32): 221 % of control | T/C (dose: 400.0 mg/kg/injection, vehicle: saline, evaluated on day 35): 251 and 297 % of control | T/C (dose: 400.0 mg/kg/injection, vehicle: saline, evaluated on day 40): 392 % of control | T/C (dose: 400.0 mg/kg/injection, vehicle: saline, evaluated on day 60): 270 [9 of 10 alive], 309 [9 of 10 alive], 360 [8 of 10 alive], 468, 522, 536 % of control | T/C (dose: 400.0 mg/kg/injection, vehicle: water, evaluated on day 7): 203 % of control | T/C (dose: 400.0 mg/kg/injection, vehicle: water, evaluated on day 30): 144 [5 of 6 alive], 154 [4 of 6 alive], 163, 168 [4 of 6 alive], 205, 208 [5 of 6 alive], 211 [5 of 6 alive], 231 [5 of 6 alive], 290, 300 % of control [4 of 6 alive] | T/C (dose: 400.0 mg/kg/injection, vehicle: water, evaluated on day 35): 308 % of control | T/C (dose: 400.0 mg/kg/injection, vehicle: water, evaluated on day 60): 203 % of control | survivor count (dose: 400.0 mg/kg/injection, vehicle: water): 3 of 6 | T/C (dose: 500.0 mg/kg/injection, vehicle: DMSO, evaluated on day 20): 168 % of control | T/C (dose: 500.0 mg/kg/injection, vehicle: DMSO, evaluated on day 25): 175 [4 of 6 alive] and 200 % of control [5 of 6 alive] | T/C (dose: 500.0 mg/kg/injection, vehicle: DMSO, evaluated on day 60): 116 % of control [5 of 6 alive] | survivor count (dose: 500.0 mg/kg/injection, vehicle: DMSO): 3 of 6 | survivor count (dose: 500.0 mg/kg/injection, vehicle: Klucel (hydroxypropylcellulose) (HPC)): 2 of 6 | survivor count (dose: 500.0 mg/kg/injection, vehicle: saline with Tween-80): 3 of 6 | T/C (dose: 500.0 mg/kg/injection, vehicle: saline, evaluated on day 5): 171 % of control

From PubChem BioAssay AID256 (DTP/NCI, 2004)
